Values of other authors, collected in publication PMC8383301 (Molecular Pharmaceutics, 2021).

System: P-gp
Conditions: rat brain microvessels; after 24 h of abstinence; cited from earlier work

In the case of `CN1CC[C@]23c4c5ccc(O)c4O[C@H]2[C@@H](O)C=C[C@H]3[C@H]1C5` [morphine], the “increase of P-gp expression compared to control animals” value is given as 1.5 times.
